{"sequences": {"note": "Protein sequences, listed by entry. Tags and fused reporters are not part of them. Residues count along the entry.", "UniProt P27467, residues 19-352": "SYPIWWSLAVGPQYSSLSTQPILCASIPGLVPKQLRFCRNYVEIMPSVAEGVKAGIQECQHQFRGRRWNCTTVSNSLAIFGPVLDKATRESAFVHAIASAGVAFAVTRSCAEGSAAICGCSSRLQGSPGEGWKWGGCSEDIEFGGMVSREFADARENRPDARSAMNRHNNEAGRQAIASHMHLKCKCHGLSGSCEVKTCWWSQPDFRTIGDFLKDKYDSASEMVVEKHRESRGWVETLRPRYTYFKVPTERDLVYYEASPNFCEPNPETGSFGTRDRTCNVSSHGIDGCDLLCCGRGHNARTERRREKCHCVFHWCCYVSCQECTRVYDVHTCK"}, "source": "patent US20100316616A1", "key": {"[1]": {"biological_target": "His-tagged mouse Wnt3a (mouse) (UniProt P27467)", "assay": "competition co-immunoprecipitation; competitor of V3Nter for Wnt3a"}, "[2]": {"biological_target": "His-tagged mouse Wnt3a (mouse) (UniProt P27467)", "assay": "competition co-immunoprecipitation at 0, 50 or 100 ug/ml RH3; competitor of V3Nter for Wnt3a"}}, "note": "Results are given in words; binding and its absence hold for the method and conditions named. In cells and extracts the contact can be indirect. Some entries that bind do so weakly or less than the wild type."}
{"binder": "AWGRFLHTNCHPFLA", "note": "[synthetic peptide RH3]", "values": [{"measurement": "binding", "setting": "[1]", "value": "binds"}, {"measurement": "binding", "setting": "[2]", "value": "binds"}]}
